A short description of this assay: qHTS Assay for Lipid Storage Modulators in Drosophila S3 Cells.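 As to cell number change: cells counted by Cell Tracker Red CMTPX staining in the red channel.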 Conditions: BODIPY lipid droplet fluorescence, 18-24 h; for cell number change: measured here: cell count max response, cells fed with added oleic acid. The method in brief: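 Laser-scanning cytometry quantifies lipid droplet accumulation (500–530 nm total intensity; droplet/cell object ratio) in oleic acid-fed (400 uM added) Drosophila S3 cells treated with a concentration series. 20 uM Triacsin C defined 100% inhibition.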

[1] abbreviates: measured here: lipid fluorescence (Fed channel) AC50, cells fed with added oleic acid.
The mark [2] stands for this setting: measured here: cell number channel AC50, cells fed with added oleic acid.

The list shows a part of the results. Shown are side measurements of this screen, not its main read-out; they come without a call. The list favours compounds with an active or inconclusive main result. Potencies come from curve fits of mixed quality, noted in brackets.

For `O=C(CCl)Nc1cccc(S(=O)(=O)NC2=NCCC2)c1`, the concentration at half-maximal activity (AC50) under setting [1] was 6.51 µM [falling, single point].

As for `COc1cccc(C2CC(C(F)(F)F)n3nc(C(=O)Nc4c(C)n(C)n(-c5ccccc5)c4=O)cc3N2)c1` (configuration not stated), the cell number change came to 12.6%. Consider `Cc1ccccc1NC(=O)Cc1nnc(SCC(=O)c2ccc(Br)cc2)n1C`, for which the cell number change is -23.2%. In addition, under setting [1], the AC50 is 2.06 µM [rising, partial curve]. `N#CC1=C(N)NC(=S)C(C(N)=O)C1c1ccc(Cl)cc1Cl` (configuration not stated): the cell number change was -27.5%. In the case of `CC(=O)c1nc2ccccc2n1S(=O)(=O)c1ccc(C)cc1`, the cell number change amounted to 31.4%. Further, the concentration at half-maximal activity (AC50) under setting [1] is 29.1 µM [rising, single point].

As for `CCOc1ccc(CN2C(=O)c3ccccc3C2C(=O)NCC2CCCO2)cc1` (configuration not stated), the cell number change amounted to 2.05%. Further, the AC50 under setting [1] is 1.16 µM [falling, single point]. On to `CCCNC(=O)C1CC2Cn3c(nc4ccccc43)C2N1C` (configuration not stated), for which the cell number change was -5.15%. The AC50 under setting [1] is 2.31 µM [rising, partial curve]. With `O=C(CSc1nncs1)NCc1ccc(F)cc1`, the AC50 under setting [1] is 0.116 µM [falling, full curve].

With `O=C(CCNC(=O)c1ccccc1)NCc1ccccc1F`, the cell number change was -7.39%. For the same compound, the AC50 under setting [1] was 2.91 µM [rising, single point]. For `Cc1ccc(Cl)cc1N1CCN(C(=O)c2cc3c(=O)[nH]c4ccccc4c3n2C)CC1`, the cell number change is -0.355%.

As for `COc1ccc(C2=NOC(C(=O)Nc3cccnc3)C2)cc1` (configuration not stated), the AC50 was 2.59 µM [rising, single point] under setting [2] and 6.51 µM [rising, partial curve, poor fit] under setting [1]. Consider `Cc1cccc(NC(=O)COc2coc(CN3CCc4ccccc4C3)cc2=O)c1`, for which the cell number change was -24.4%. In addition, under setting [2], the AC50 was 4.11 µM [falling, full curve, poor fit]. On to `COC(=O)CSc1nc2cc3c(cc2cc1C#N)OCO3`, for which the cell number change is 32.1%. In addition, the AC50 under setting [2] was 8.2 µM [rising, single point].

Consider `CN1c2ccccc2C(C)(C)C12CC(c1ccc(S(=O)(=O)N3CCCCC3)cc1)=NO2` (configuration not stated), for which the cell number change is -32.9%. Besides, under setting [2], the AC50 is 6.51 µM [rising, single point]. On to `CCn1c2ccccc2c2cc(CN3CCN(Cc4cc(OC)ccc4O)CC3)ccc21`, for which the cell number change is 61.8%. Under setting [2], the AC50 was 6.51 µM [rising, full curve]. Turning to `O=C(Nc1ccc(N2CCOCC2)cc1)c1cccc(S(=O)(=O)N2CCCC2)c1`, the cell number change is -13.3%. Also, the AC50 under setting [1] is 0.164 µM [falling, full curve, poor fit]. `O=c1[nH][nH]c(-c2ccccc2O)c1C(C[N+](=O)[O-])c1ccc(Br)cc1` (configuration not stated): the cell number change was -20.7%. The AC50 under setting [1] was 29.1 µM [falling, single point]. For the compound `O=C(NC1CCCCC1)C1CC(O)CN1C(=O)OCc1ccccc1` (configuration not stated), the cell number change was found to be 12.8%. The AC50 under setting [1] was 2.91 µM [rising, partial curve, poor fit].

Turning to `Nc1ccccc1Nc1ccncc1[N+](=O)[O-]`, the cell number change came to 1.06%. Regarding `Cc1onc(-c2c(F)cccc2Cl)c1C(=O)Nc1nccs1`, the cell number change was 25.9%. The AC50 under setting [2] was 6.51 µM [rising, partial curve, poor fit]. In addition, the AC50 under setting [1] is 6.51 µM [rising, partial curve, poor fit]. Regarding `O=C(NS(=O)(=O)c1ccccc1)c1ccccc1O`, the cell number change was -72.3%. In addition, the AC50 under setting [2] was 29.1 µM [falling, single point]. In the case of `Cc1cnc(NC(=O)CSc2nnc(N)s2)s1`, the cell number change is -0.605%. In addition, the AC50 under setting [1] was 29.1 µM [falling, single point]. `COc1cccc(N2CC(C(=O)Nc3nnc(SCCC4OCCO4)s3)CC2=O)c1` (configuration not stated): the cell number change is -17.6%. Moreover, the concentration at half-maximal activity (AC50) under setting [1] is 29.1 µM [rising, single point]. In the case of `Cc1cccc(OCC(=O)NCC(=O)N/N=C/c2cccs2)c1`, the cell number change is -7.89%. For the same compound, under setting [1], the AC50 was 0.291 µM [falling, partial curve, poor fit]. For the compound `Cc1ccc(C)c(S(=O)(=O)NC2CCS(=O)(=O)C2)c1` (configuration not stated), the cell number change was -14.3%. Under setting [1], the AC50 is 0.116 µM [rising, full curve, poor fit]. On to `COc1ccc(OC)c(N(CC(=O)Nc2ccccc2)S(C)(=O)=O)c1`, for which the cell number change is 2.28%. In addition, the AC50 under setting [1] is 29.1 µM [rising, single point]. Consider `N#C/C(=C(\O)c1cc(Cl)sc1Cl)c1nc2ccccc2[nH]1`, for which the cell number change is -7.76%. As for `CN(c1ccccc1)S(=O)(=O)c1ccc(NC(=O)c2ccco2)cc1`, the cell number change is 13.4%. Also, the AC50 under setting [2] was 0.092 µM [rising, full curve, poor fit].

In the case of `Cn1c(=O)c2c(nc(NCC3CCCC(CN)C3)n2Cc2ccc(Cl)cc2Cl)n(C)c1=O` (configuration not stated), the cell number change was -9.72%.

As for `CN(C)C(=O)Nc1ccc(F)cc1F`, the cell number change was -37.3%. For the same compound, under setting [2], the AC50 was 0.146 µM [falling, full curve]. Moreover, the half-maximal activity concentration (AC50) under setting [1] was 0.82 µM [falling, full curve]. `Cc1cccc(NS(=O)(=O)c2ccc(C(=O)N3CCCC3)cc2)c1C`: the cell number change amounted to 22.7%. Besides, the AC50 under setting [2] is 1.64 µM [rising, full curve, poor fit]. Also, under setting [1], the AC50 is 1.64 µM [rising, full curve]. `CCC(C)(C)NC(=O)C(c1cccn1C)N(Cc1ccc(C)cc1)C(=O)Cn1nnc2ccccc21` (configuration not stated): the cell number change was 2.58%. The same measure, in the same setting: the result for `CSc1nnc(-c2ccco2)n1-c1ccccc1` reads -8.3%.

Regarding `CC(OC(=O)CCCN=C1NS(=O)(=O)c2ccccc21)C(=O)c1ccccc1` (configuration not stated), the cell number change was -21.2%. Moreover, under setting [1], the AC50 was 29.1 µM [falling, single point].

As to `C#Cc1cccc(C(=O)N2CCCC(C(=O)c3ccc(OC)cc3C)C2)c1` (configuration not stated), the AC50 under setting [1] was 2.31 µM [falling, partial curve].

Regarding `C#CCOc1ccc(Br)cc1C(c1c(C)[nH][nH]c1=O)c1c(C)[nH][nH]c1=O`, the cell number change is -22.3%. Take `COc1ccc(CC(=O)Nc2cccc(-c3ccc4nncn4n3)c2)cc1OC`: the cell number change was -38.2%. Moreover, the AC50 under setting [2] is 4.11 µM [falling, partial curve]. Further, under setting [1], the AC50 is 0.116 µM [falling, full curve, poor fit]. In the case of `CCOC(=O)C1CCN(c2cc(C)nc3cc(-c4cccc(F)c4)nn23)CC1`, the cell number change was 91.3%. In addition, the AC50 under setting [2] was 0.517 µM [rising, single point]. Under setting [1], the AC50 was 0.731 µM [rising, single point].

Consider `COc1ccc(-c2cn(-c3ccc(C)c(C)c3)c(=S)[nH]2)cc1OC`, for which the cell number change is -27.3%. In addition, the AC50 under setting [1] is 20.6 µM [falling, single point]. With `COC(=O)c1cc2oc(C)cc2n1CC(=O)Nc1ccc(OC)c(OC)c1OC`, the cell number change came out at 24.9%. In addition, under setting [1], the AC50 is 29.1 µM [rising, single point]. `CCOC(=O)CCNC(=O)N1CCCC(C(=O)c2cccc(OC(C)C)c2)C1` (configuration not stated): the cell number change stood at 9.33%. In addition, the AC50 under setting [1] is 29.1 µM [falling, single point]. As to `O=C(CNC(=O)c1ccccc1Br)NNC(=O)c1cccs1`, the cell number change is -6.5%. Consider `CC1CCN(Cc2nnnn2CCCC(=O)N(C)C2CCOC2)CC1` (configuration not stated), for which the cell number change was 13.1%. As to `COc1ccc(OC)c(Nc2nc(NCc3ccco3)c3ccccc3n2)c1`, the cell number change was -31.4%. In addition, the AC50 under setting [2] was 18.4 µM [falling, single point]. Besides, the AC50 under setting [1] was 29.1 µM [falling, single point]. As to `Cc1ccc(Cl)cc1NC(=S)N(Cc1ccccc1)Cc1cccnc1`, the cell number change came to 58.3%. For the same compound, the AC50 under setting [2] is 9.2 µM [rising, partial curve]. Besides, the AC50 under setting [1] is 13 µM [rising, partial curve, poor fit]. For `N#C/C(=C(/O)COc1cccc2ccccc12)c1nc2ccccc2[nH]1`, the cell number change worked out at 94.2%. In addition, the AC50 under setting [2] was 20.6 µM [rising, single point]. Besides, the AC50 under setting [1] is 0.651 µM [rising, full curve]. As to `Cc1ccc(CN2CCN(CC(=O)NCc3ccc(Cl)cc3)C2=O)cc1`, the cell number change is -21.7%. Besides, under setting [1], the AC50 was 18.4 µM [falling, partial curve, poor fit].

As to `S=C(Nc1ccc(Cl)cc1)c1sc(N2CCCCC2)nc1N1CCOCC1`, the cell number change is 8.13%. Moreover, the AC50 under setting [1] was 1.64 µM [rising, single point]. Turning to `Cc1nc(NC(=O)c2ccccc2)sc1-c1csc(Nc2cccc(Cl)c2)n1`, the cell number change is -67%. Moreover, the AC50 under setting [2] was 14.6 µM [falling, partial curve]. The AC50 under setting [1] was 9.2 µM [falling, partial curve]. As to `COc1ccc(N=C2NN=C(c3c(C)[nH]c4ccccc34)CS2)cc1`, the cell number change is -8.48%. `CCN(CCNC(=O)Nc1ccc(Cl)cc1)c1ccccc1`: the cell number change came out at 46.2%. Besides, the AC50 under setting [2] is 10.3 µM [rising, partial curve]. As to `COc1ccc(CNC(=O)/C=C/c2ccc(S(=O)(=O)NCc3ccco3)cc2)cc1OC`, the cell number change was -1.27%. Under setting [1], the AC50 was 20.6 µM [falling, single point]. In the case of `Cc1ccc(S(=O)(=O)N2CC3(C)CN(S(=O)(=O)c4ccc(C)cc4)CC(C)(C2)C3)cc1`, the cell number change was -34%. Further, under setting [2], the AC50 is 7.31 µM [falling, partial curve, poor fit]. The AC50 under setting [1] was 0.103 µM [falling, full curve]. In the case of `COc1ccc2c(c1OC)C(=O)N(c1cccc(C(F)(F)F)c1)C2`, the cell number change is 17.7%. The AC50 under setting [1] is 2.59 µM [rising, partial curve]. For the compound `O=C(C1CCCO1)N1CCC(O)(c2ccccc2)CC1` (configuration not stated), the cell number change is -11.4%. On to `CCOc1ccccc1C(=O)N(CCC(=O)OC)c1ccccn1`, for which, under setting [1], the AC50 is 18.4 µM [falling, partial curve].

For `CCN1C(=O)C2C(C1=O)N1C(c3ccccc3)C3C(=O)N(CC)C(=O)C3N1C2c1ccccc1` (configuration not stated), the cell number change was -11.1%. Under setting [1], the AC50 is 4.11 µM [falling, single point]. Take `CCN(C1CCCCC1)S(=O)(=O)c1ccc(S(=O)(=O)NCc2ccncc2)cc1`: the cell number change amounted to 0.575%. Moreover, under setting [1], the AC50 was 29.1 µM [falling, single point]. As to `CC1CC(C)(C)NC(=S)S1` (configuration not stated), the AC50 under setting [2] is 2.06 µM [rising, partial curve].

As for `CC1CCN(C(=O)CN2c3cccc4cccc(c34)S2(=O)=O)CC1`, the cell number change stood at 32.9%. The AC50 under setting [2] was 11.6 µM [rising, partial curve, poor fit]. Besides, the AC50 under setting [1] is 8.2 µM [rising, partial curve, poor fit]. On to `Fc1ccccc1Nc1nc2ccccc2n2nnnc12`, for which the cell number change is 3.93%. Moreover, under setting [1], the AC50 was 9.2 µM [rising, partial curve]. As to `COC(=O)c1c(F)c(F)c(N2CCOCC2)c(F)c1F`, the cell number change was -9.77%. The AC50 under setting [1] is 0.0206 µM [falling, full curve, poor fit].

What is called AC50 is the midpoint of the concentration-response curve, whichever way the signal moves. The low end stands for activity at low concentration, the high end for activity only at high concentration.

For the origin of these results see PubChem BioAssay AID2685 (National Center for Advancing Translational Sciences (NCATS), 2010).
